Results reported in patent publication US20220340657A1.
These are yes or no findings as the source states them, for the method shown. Some binding calls cover weakened binding; strength is not graded here.

Sequences of proteins named here, by UniProt entry; tags and fusion partners are left off. A change or cut given only in a name is not applied to a line headed by its entry. A line that says so, or that is headed by a name, gives the form on record, which may keep a tag or linker. Residues count along the entry.
bio-LAG3-mFc (P18627, residues 23-450): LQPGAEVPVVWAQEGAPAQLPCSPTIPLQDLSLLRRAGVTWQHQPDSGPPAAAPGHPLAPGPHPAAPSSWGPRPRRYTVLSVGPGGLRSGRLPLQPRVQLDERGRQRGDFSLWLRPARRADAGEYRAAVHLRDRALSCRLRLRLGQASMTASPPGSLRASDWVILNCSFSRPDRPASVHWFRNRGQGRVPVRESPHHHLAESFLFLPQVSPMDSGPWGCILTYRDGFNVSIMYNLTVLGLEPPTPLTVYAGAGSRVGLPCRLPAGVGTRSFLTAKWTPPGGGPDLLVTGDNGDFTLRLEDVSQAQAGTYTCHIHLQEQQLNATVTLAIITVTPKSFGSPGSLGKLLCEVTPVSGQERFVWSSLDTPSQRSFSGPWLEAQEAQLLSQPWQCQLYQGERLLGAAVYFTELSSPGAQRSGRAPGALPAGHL
human LAG-3-his (P18627, form named): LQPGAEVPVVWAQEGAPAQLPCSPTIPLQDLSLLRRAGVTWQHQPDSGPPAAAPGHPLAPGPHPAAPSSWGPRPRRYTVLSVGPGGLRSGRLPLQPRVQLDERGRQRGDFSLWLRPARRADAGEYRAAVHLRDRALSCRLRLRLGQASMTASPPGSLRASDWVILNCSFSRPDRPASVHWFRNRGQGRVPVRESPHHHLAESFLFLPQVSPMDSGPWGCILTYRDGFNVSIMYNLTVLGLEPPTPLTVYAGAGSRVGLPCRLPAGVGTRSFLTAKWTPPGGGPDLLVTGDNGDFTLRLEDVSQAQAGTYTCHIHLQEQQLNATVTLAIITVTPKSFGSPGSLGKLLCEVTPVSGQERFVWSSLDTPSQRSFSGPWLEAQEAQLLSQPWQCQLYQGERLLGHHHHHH

Legend:
human LAG-3-his (human) [1] = molecular target: human LAG-3-his (human) (UniProt P18627); assay: ELISA
human LAG-3-his (human) [2] = molecular target: human LAG-3-his (human) (UniProt P18627); assay: ELISA on coated human LAG-3-his, anti-human HRP, OD450 (Example 3) [panel a]
bio-LAG3-mFc (human) = bio-LAG3-mFc (human) (UniProt P18627); assay: blocking ELISA on fixed Daudi cells: antibody titrated against bio-LAG3-mFc binding to Daudi cells (MHC II), streptavidin-HRP, OD450 (Example 4) [panel b]

Measured: binding

B1: chimeric antibody mab23c (antibody, human IgG4 S228P, kappa, V domains shown)
VH: QVQLQQSGAELVRPGASVTLSCKASGYTFTDYEMHWVKQTPVHGLEWIGGIDPETEGIAYNQKFRGKAILTADKSSITAYMELRSLTSEDSAVYYCTNSNYYGGREAWFAYWGQGTLVTVSG
VL: DIQMIQSPSSLSASLGERVSLTCRASQDIGSSLNWLQQEPDGTIKRLIYATSSLDSGVPKRFSGSRSGSDYSLTISSLESEDFVDYYCLQYVTSPLTFGAGTKLELKR
binds: human LAG-3-his (human) [1] | human LAG-3-his (human) [2] | bio-LAG3-mFc (human)
